Reference: paper PMC8659020, “Ferrocene-Labelled Electroactive Aptamer-Based Sensors (Aptasensors) for Glycated Haemoglobin”
For at least one entry, the source does not settle the construct or the ends of the probe.

Assays:
[1] = tested on: Glycated haemoglobin (HbA1c); assay: differential pulse voltammetry (electrochemical aptasensor); details: aptamer immobilized on electrode; 5' ferrocene; 3' thiol (SH), immobilized on gold screen-printed electrode; DPV in 10 mM Tris-HCl (stated for clinical-range test; pH and temperature not given); EIS in 5 mM [Fe(CN)6]3-/4-, 0.1 M KCl; aptamer loaded in 5 mM MgCl2; commercial protein; label: 5' ferrocene; single-stranded DNA
[2] = tested on: Glycated haemoglobin (HbA1c); assay: electrochemical impedance spectroscopy; details: 5 mM [Fe(CN)6]3-/4-, 0.1 M KCl, 5-40 ug/mL protein, 5' ferrocene, 3' thiol (SH), immobilized on gold screen-printed electrode, DPV in 10 mM Tris-HCl (stated for clinical-range test; pH and temperature not given), EIS in 5 mM [Fe(CN)6]3-/4-, aptamer loaded in 5 mM MgCl2, commercial protein, label: 5' ferrocene, single-stranded DNA

GGGGACACAGCAACACACCCACCCACCAGCCCCAGCATCATGCCCATCCGTCGTGTGTG [HbA1c aptamer (I)]
Kd [1]: 11.7 µg/mL
binding result [2]: binds
